{
  "source": "paper PMC11065422",
  "binders": {"B1": {"name": "Septin 2 (protein, UniProt P42208 1-361)", "chain": "MSKQQPTQFINPETPGYVGFANLPNQVHRKSVKKGFEFTLMVVGESGLGKSTLINSLFLTDLYPERIIPGAAEKIERTVQIEASTVEIEERGVKLRLTVVDTPGYGDAINCRDCFKTIISYIDEQFERYLHDESGLNRRHIIDNRVHCCFYFISPFGHGLKPLDVAFMKAIHNKVNIVPVIAKADTLTLKERERLKKRILDEIEEHSIKIYHLPDAESDEDEDFKEQTRLLKASIPFSVVGSNQLIEAKGKKVRGRLYPWGVVEVENPEHNDFLKLRTMLITHMQDLQEVTQDLHYENFRSERLKRGGRKVENEDMNKDQILLEKEAELRRMQEMIARMQAQMQMQMQGGDSDSGALGQHV"}, "B2": {"name": "Septin 9 (protein, UniProt Q80UG5 1-583)", "chain": "MKKSYSGVTRTSSGRLRRLADPTGPALKRSFEVEEIEPPNSTPPRRVQTPLLRATVASSSQKFQDLGVKNSEPAARLVDSLSQRSPKPSLRRVELAGAKAPEPMSRRTEISIDISSKQVESTASAAGPSRFGLKRAEVLGHKTPEPVPRRTEITIVKPQESVLRRVETPASKIPEGSAVPATDAAPKRVEIQVPKPAEAPNCPLPSQTLENSEAPMSQLQSRLEPRPSVAEVPYRNQEDSEVTPSCVGDMADNPRDAMLKQAPASRNEKAPMEFGYVGIDSILEQMRRKAMKQGFEFNIMVVGQSGLGKSTLINTLFKSKISRKSVQPTSEERIPKTIEIKSITHDIEEKGVRMKLTVIDTPGFGDHINNENCWQPIMKFINDQYEKYLQEEVNINRKKRIPDTRVHCCLYFIPATGHSLRPLDIEFMKRLSKVVNIVPVIAKADTLTLEERVYFKQRITADLLSNGIDVYPQKEFDEDAEDRLVNEKFREMIPFAVVGSDHEYQVNGKRILGRKTKWGTIEVENTTHCEFAYLRDLLIRTHMQNIKDITSNIHFEAYRVKRLNEGNSAMANGIEKEPEAQEM"}, "B3": {"name": "Nuclear-interacting partner of Alk (protein, UniProt Q80YV2 1-501)", "chain": "MAATSEGPLFAASIEKTWGSVVRSPEGTPQKVRELIDEGIVPEEGGTEPKDTAATFQSVDGSPQAEQSPLESTSKEAFFHRVETFSSLKWAGKPPELSPLICAKYGWVTVECDMLKCSSCQAFLCASLQPTFDFGRYKERCAELKKSLCSAHEKFCFWPDSPSPDRFGMLPLGEPAVLISEFLDRFQSLCHLDLQLPSLRPEDLKTMCLTEDAVSALLHLLEDELDFHADDRKTTSKLGSDVQVQATACVLSLCGWACSSLEPTQLSLITCYQCMRKVGLWGFQQIESSMTDLEASFGLTSSPIPGVEGRPEHFPLVPESPRRMMTRSQDATVSPGSEQSEKSPGPIVSRTRSWESSSPVDRPELEAASPTTRSRPVTRSMGTGDSAGVEVPSSPLRRTKRARLCSSSSSDTSPRSFFDPTSQHRDWCPWVNITLVKETKENGETEVDACTPAEPGWKAVLTILLAHKRSNQPAETDSMSLSEKSRKVFRIFRQWESSSSS"}, "B4": {"name": "cAMP specific 3–5-cyclic phosphodiesterase 4D (enzyme, UniProt Q01063 1-747)", "chain": "MERDTCDVLSRSKSASEETLHSCNEEEDPFRGMEPYLVRRLSSRSIQLPPLAFRQLEQADLRSESENIPRPTSLPLKILPLIAVTSADSSGFDVDNGTSAGRSPLDPMTSPGSGLILQANFVHSQRRESFLYRSDSDYDLSPKSMSRNSSIASDIHGDDLIVTPFAQVLASLRTVRNNFAALTNLQDRAPSKRSPMCNQPSINKATITEEAYQKLASETLEELDWCLDQLETLQTRHSVSEMASNKFKRMLNRELTHLSEMSRSGNQVSEYISNTFLDKQHEVEIPSPTQKEKEKKKRPMSQISGVKKLMHSSSLTNSCIPRFGVKTEQEDVLAKELEDVNKWGLHVFRIAELSGNRPLTVIMHTIFQERDLLKTFKIPVDTLITYLMTLEDHYHADVAYHNNIHAADVVQSTHVLLSTPALEAVFTDLEILAAIFASAIHDVDHPGVSNQFLINTNSELALMYNDSSVLENHHLAVGFKLLQEENCDIFQNLTKKQRQSLRKMVIDIVLATDMSKHMNLLADLKTMVETKKVTSSGVLLLDNYSDRIQVLQNMVHCADLSNPTKPLQLYRQWTDRIMEEFFRQGDRERERGMEISPMCDKHNASVEKSQVGFIDYIVHPLWETWADLVHPDAQDILDTLEDNREWYQSTIPQSPSPAPDDQEEGRQGQTEKFQFELTLEEDCESDTEKDSGSQVEEDTSCSDSKTLCTQDSESTEIPLDEQVEEEAVAEEESQPETCVPDDCCPDT"}, "B5": {"name": "Septin 7 (protein, UniProt O55131 1-436)", "chain": "MSVSARSAAAEERSVNCGTMAQPKNLEGYVGFANLPNQVYRKSVKRGFEFTLMVVGESGLGKSTLINSLFLTDLYSPEYPGPSHRIKKTVQVEQSKVLIKEGGVQLLLTIVDTPGFGDAVDNSNCWQPVIDYIDSKFEDYLNAESRVNRRQMPDNRVQCCLYFIAPSGHGLKPLDIEFMKRLHEKVNIIPLIAKADTLTPEECQQFKKQIMKEIQEHKIKIYEFPETDDEEENKLVKKIKDRLPLAVVGSNTIIEVNGKRVRGRQYPWGVAEVENGEHCDFTILRNMLIRTHMQDLKDVTNNVHYENYRSRKLAAVTYNGVDNNKNKGQLTKSPLAQMEEERREHVAKMKKMEMEMEQVFEMKVKEKVQKLKDSEAELQRRHEQMKKNLEAQHKELEEKRRQFEEEKANWEAQQRILEQQNSSRTLEKNKKKGKIF"}, "B6": {"name": "Septin 10 (protein, UniProt Q8C650 1-452)", "chain": "MASCDEIKEHPRSLSMCGHVGFESLPDQLVDRSIEQGFCFNILCVGETGIGKSTLINTLFNTNFEELESSHFCPCVRLRAQTYELQESNVRLKLTIVNTVGFGDQINKEDSYQPIVDYIDDQFEAYLQEEVKIKRALFNYHDSRIHVCLYFIAPTGHSLRTLDLLTMKSLDNKVNIIPLIAKADTISKSELQKFKMKLMNELVINGVQIYQFPTDDDTTSKINGAMNGHLPFAVVGSMDEIKVGNKMVKGRQYPWGIVQVENENHCDFVKLREMLICTNMEDLREQTHMRHYELYRRCKLQEMGFVDMGPENKPLSLQETYEAKRHEFYGERQRKEEQMKQMFVQRVKEKEAILKEAERELQAKFEHLKRIHQEERMKLEEKRRMLEEESVAFAKKKATCELFPNQSFLASGSSIRKDKDRKKADGASAFCDCLTAQESVRLCISSPRKDMD"}, "B7": {"name": "Homer protein homologue (protein, UniProt Q99JP6 1-356)", "chain": "MSTAREQPIFSTRAHVFQIDPTTKRNWIPAGKHALTVSYFYDATRNVYRIISIGGAKAIINSTVTPNMTFTKTSQKFGQWADSRANTVYGLGFASEQQLTQFAEKFQEVKEAARLAREKSQDGGEFTSTGLALASHQVPPSPLVSTNGPGEEKLFRSQSADTPGPTERERLKKMLSEGSVGEVQWEAEFFALQDSNQRLAGALREANAAATQWRQQLEVQRAEAELLRQRVAELEAQVAVEPVRAGEKEATSQSVEQLEARVQTKDQTLKNQSTGTREAPDTAEREETQQQVQDLETRNAELEQQLRSMECNLEEARAERERARAEVGRAAQLLDVRLFELSELREGLARLAEAAP"}, "B8": {"name": "E3 ubiquitin ligase Traf7 (enzyme, UniProt Q922B6 1-594)", "chain": "MPPINTPRRSDSAISVRSLHSESSMSLRSTFSLPEEEEEPEPLVFAEQPSVKLCCQLCCSVFKDPVITTCGHTFCRRCALKSEKCPVDNAKLTVVVNNIAVAEQIGELFIHCRHGCHAAGTGKPGVFEVDPRGCPFTIKLSARKDHESSCDYRPVRCPNNPSCPPLLKMNLEAHLKECEHIKCPHSKYGCTFIGNQDTYETHLETCRFEGLKEFLQQTDDRFHEMHVALAQKDQEIAFLRSMLGKLSEKIDQLEKSLELKFDVLDENQSKLSEDLMEFRRDASMLNDELSHINARLNMGILGSYDPQQIFKCKGTFVGHQGPVWCLCVYSMGDLLFSGSSDKTIKVWDTCTTYKCQKTLEGHDGIVLALCIQGCKLYSGSADCTIIVWDIQNLQKVNTIRAHDNPVCTLVSSHNMLFSGSLKAIKVWDIVGTELKLKKELTGLNHWVRALVAAQSYLYSGSYQTIKIWDIRTLDCIHVLQTSGGSVYSIAVTNHHIVCGTYENLIHVWDIESKEQVRTLTGHVGTVYALAVISTPDQTKVFSASYDRSLRVWSMDNMICTQTLLRHQGSVTALAVSRGRLFSGAVDSTVKVWTC"}},
  "target": "Numb (mouse (endogenous in C2C12))",
  "test": "affinity purification with mass spectrometry; IP of endogenous Numb with goat polyclonal anti-Numb (control: goat IgG) from lysates of 5-day differentiated C2C12 myotubes; 25 mM Tris-HCl pH 7.2, 150 mM NaCl, 1 mM EDTA, 5% glycerol, 0.1% Triton X-100, 4°C; Protein A/G Plus; eluted with 0.3% SDS at 37°C; LC/MS/MS of tryptic peptides; seven independent IPs",
  "note": "Results are given in words; binding and its absence hold for the method and conditions named. Binding seen in cells or lysates may run through a third protein. These calls come from enrichment with a bait or labelling near it, and not all partners need be listed.",
  "data": [
    {"binder": "B1", "values": [
      {"measurement": "binding", "result": "binds"}
    ]},
    {"binder": "B2", "values": [
      {"measurement": "binding", "result": "binds"}
    ]},
    {"binder": "B3", "values": [
      {"measurement": "binding", "result": "binds"}
    ]},
    {"binder": "B4", "values": [
      {"measurement": "binding", "result": "binds"}
    ]},
    {"binder": "B5", "values": [
      {"measurement": "binding", "result": "binds"}
    ]},
    {"binder": "B6", "values": [
      {"measurement": "binding", "result": "binds"}
    ]},
    {"binder": "B7", "values": [
      {"measurement": "binding", "result": "binds"}
    ]},
    {"binder": "B8", "values": [
      {"measurement": "binding", "result": "binds"}
    ]}
  ]
}
